# Measurements taken from article PMC2229861.
# Target: GST-Abi1-SH3 (aa 330-480)
# Assay: pull-down; total cellular lysates (1 mg) of transfected 293T cells incubated with 1.5 μM immobilized GST-Abi1, GST-Abi1-SH3 (aa 330-480) or GST; bound proteins immunoblotted with GFP antibody; only the target purified
binder,measurement,value
"GFP-N-terminal fragment of mDia2 (NT-mDia2, aa 1-550) (domain or fragment, UniProt Q9Z207 1-550) MERHRARALGRDSKSSRRKGLQSAPPAGPYEPGEKRPKLHLNIRTLTDDMLDKFASIRIPGSKKERPPLPHLKTVSGISDSSSLSSETMENNPKALPESEVLKLFEKMMEDMNLNEDKKAPLREKDFGIKKEMVMQYINTASKTGSLRSSRQISPQEFLHELKMGYTDERLFTYLESLRVSLTSHPVSWVQSFGHEGLGLLLDILEKLINGQIQEKVVKKTQHKVIQCLRALMNTQYGLERIMSDKRSLSLLAKAMDPRQPAMMADVVKLLSAVCIVGEESILEEVLEALTSAGEERKIDRFFSIVEGLRHNSVNLQVACMQLINALVTSPDDLDFRLHLRNEFMRCGLKEILPNLKGIKNDGLDIQLKVFDEHKEEDLSEFFHRLEDIRAELDEASDVYSMLWDTVKETRAEGHFLSILQHLLLIRNDRFIREQYFKLIDECVSQIVLHRDGTDPDFTYRKRLDLDLSQFVDVCIDQAKLDEWEEKASEHCKKFEKECTDHQETQAQLQKREAKINELQAELQAFKSQFGALPPGTKIPLQPSVEGEAG",binding,binds

# No constants are given. Whether binding was seen depends on the method and setting. Binding seen in cells or lysates may run through a third protein. A result given as binding can be weak or reduced; the word gives no strength. Where a sequence is shown, tags or fusion partners need not be part of it.
